The record followed here is paper doi:10.1101/2022.05.24.493195 (bioRxiv, 2022).

Protein sequences, listed by entry. Tags and fused reporters are not part of them. Residues count along the entry.
UniProt Q96GD4, 55-344: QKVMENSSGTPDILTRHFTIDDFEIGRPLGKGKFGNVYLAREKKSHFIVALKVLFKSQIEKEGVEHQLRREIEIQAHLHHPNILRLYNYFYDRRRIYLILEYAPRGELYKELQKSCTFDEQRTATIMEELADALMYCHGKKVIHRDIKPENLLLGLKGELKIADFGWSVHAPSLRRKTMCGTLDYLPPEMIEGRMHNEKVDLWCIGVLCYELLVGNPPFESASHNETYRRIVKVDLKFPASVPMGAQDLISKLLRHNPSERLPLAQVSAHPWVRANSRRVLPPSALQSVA
UniProt Q9NQS7, 835-903: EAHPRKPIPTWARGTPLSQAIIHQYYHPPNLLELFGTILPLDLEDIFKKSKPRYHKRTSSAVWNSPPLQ

The assay addresses truncated Aurora B (55-344) (UniProt Q96GD4). Description: SEC. In general terms: SEC sorts molecules by how far they enter the pores of the column.

These are yes or no findings as the source states them, for the method shown. Some binding calls cover weakened binding; strength is not graded here.

For the substance “C-terminus of INCENP (835-903) (from UniProt Q9NQS7 835-903) (domain or fragment)”, the binding result is recorded as “binds”.
